These are yes or no findings as the source states them, for the method shown. Binding seen in cells or lysates may run through a third protein. Some results given as binding are weak or reduced against the parent protein; the word gives no strength.

Protein sequences, listed by entry. Tags and fused reporters are not part of them.
UniProt P40763: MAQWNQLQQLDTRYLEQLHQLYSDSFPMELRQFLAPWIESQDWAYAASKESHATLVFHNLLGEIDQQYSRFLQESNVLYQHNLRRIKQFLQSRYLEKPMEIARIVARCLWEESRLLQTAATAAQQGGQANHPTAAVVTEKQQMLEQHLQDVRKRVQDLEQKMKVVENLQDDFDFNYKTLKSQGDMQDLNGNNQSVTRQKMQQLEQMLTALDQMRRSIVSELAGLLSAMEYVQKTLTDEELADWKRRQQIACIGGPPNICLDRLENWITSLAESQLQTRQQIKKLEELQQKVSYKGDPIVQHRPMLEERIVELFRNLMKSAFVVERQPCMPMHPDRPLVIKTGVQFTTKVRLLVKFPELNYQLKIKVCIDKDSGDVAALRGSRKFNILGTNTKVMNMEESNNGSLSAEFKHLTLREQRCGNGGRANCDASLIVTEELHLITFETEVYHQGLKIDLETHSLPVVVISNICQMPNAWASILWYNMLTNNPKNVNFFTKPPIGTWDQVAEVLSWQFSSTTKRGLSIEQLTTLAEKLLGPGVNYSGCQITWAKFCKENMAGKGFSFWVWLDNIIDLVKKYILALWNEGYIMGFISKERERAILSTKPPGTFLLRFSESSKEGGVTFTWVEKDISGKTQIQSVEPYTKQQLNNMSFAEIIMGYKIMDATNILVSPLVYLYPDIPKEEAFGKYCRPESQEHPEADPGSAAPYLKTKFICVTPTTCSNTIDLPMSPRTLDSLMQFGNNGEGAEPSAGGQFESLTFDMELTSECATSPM
UniProt P09429: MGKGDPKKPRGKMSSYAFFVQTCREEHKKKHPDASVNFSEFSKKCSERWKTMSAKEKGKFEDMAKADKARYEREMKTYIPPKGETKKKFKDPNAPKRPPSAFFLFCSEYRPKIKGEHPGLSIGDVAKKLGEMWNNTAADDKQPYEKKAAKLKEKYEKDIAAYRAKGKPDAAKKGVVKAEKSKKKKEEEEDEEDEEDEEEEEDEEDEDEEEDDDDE

The assay deals with STAT3-P^Y705 (human (endogenous in Su-DHL6 and Su-DHL8)) (UniProt P40763). The experiment in a line: co-IP; Su-6 and Su-8 cell extracts in RIPA buffer, 200 ug protein, 4°C overnight with anti-STAT3-P^Y705 or anti-HMGB1 antibody or control IgG, Protein A/G Plus-Agarose, blot with the other antibody; control cells and cells treated with IL-10 for 4 hours (binding increased with IL-10).

Take “High mobility group protein B 1 (from UniProt P09429 1-215)”: the binding result was “binds weakly”.

The values are drawn from publication PMC4695028.
